Data published in publication PMC4158420, “Crenactin from Pyrobaculum calidifontis is closely related to actin in structure and forms steep helical filaments” (Febs Letters, 2014).
No constants are given. Whether binding was seen depends on the method and setting.

Target: Pyrobaculum calidifontis crenactin V339K (Pyrobaculum calidifontis) (UniProt A3MWN5)
Assay: negative stain electron microscopy; 0.3 mg/ml purified crenactin polymerised with 2 mM ATP and 4 mM MgCl2 at room temperature for 30 min; carbon grids treated with poly-L-lysine, or 600 mM to 2 M KCl without poly-L-lysine; uranyl acetate stain; both purified

B1: Pyrobaculum calidifontis crenactin V339K (protein, UniProt A3MWN5 1-432)
chain: MGVISDAYRLKYTFGVDFGTSYVKYGPITLNEPKMVQTRGLFLRDLPESVKMRIPPDVLARGLVVGDEEVRKYLSSVRDVQRNLKYPLKDGVARRDDEEAWRVLKELARYTLAQFPVSDPEFAGWLVAVALSALAPDYMYKAIFDIYDELASEFKIYAVTILPQPLAVAIAENAVNCVIVEGGHGNIQVAPISFALIREGLVALNRGGAEANAITREILKDIGYSDIAREEYAVEVVKRAVGLVPRRLKEAIRAAKSDPDRFVTKVRLSPVVEVEIPREYAWTRFLIGEIVFDPNHEEIKSYIEQSRLRIENAVIGDVTLYGEMDVASAIITSLRNVSKEIQERVASQIILSGGAFSWRVPPGMEDVAADSVTRVKIALEEKSPALASKVEVRLVSEPQYSVWRGAVIYGYALPLSLEWSDTTREGWRFPRR
- binding: no binding (tested: 0.3 mg/ml)
